Values quoted from earlier work as cited in PMC8175309, “Translational CNS Steady-State Drug Disposition Model in Rats, Monkeys, and Humans for Quantitative Prediction of Brain-to-Plasma and Cerebrospinal Fluid-to-Plasma Unbound Concentration Ratios” (The AAPS Journal, 2021).

Legend:
[1] = in vivo; cited from earlier work
[2] = *8 ref Uchida et al. (31); cited from earlier work

| SMILES | Kp,uu,CSF Rat [1] | Kp,uu,brain Rat [1] | Kp,uu,brain Monkey [2] |
| --- | --- | --- | --- |
| CN1C(=O)CN=C(c2ccccc2)c2cc(Cl)ccc21 [Diazepam] | 0.78 0.847 | 1.07 0.805 | 0.877 |
| CN1CC[C@]23c4c5ccc(O)c4O[C@H]2[C@@H](O)C=C[C@H]3[C@H]1C5 [Morphine] | 0.4 | 0.150 |  |
